Residue numbers refer to the chain shown, from its start. These are yes or no findings as the source states them, for the method shown. Binding seen in cells or lysates may run through a third protein. Some results given as binding are weak or reduced against the parent protein; the word gives no strength. Tags and fused reporters may be left off the sequences shown.
B1: arginyl-tRNA synthetase (RARS), P54136 1-660 (enzyme)
chain: MDVLVSECSARLLQQEEEIKSLTAEIDRLKNCGCLGASPNLEQLQEENLKLKYRLNILRKSLQAERNKPTKNMINIISRLQEVFGHAIKAAYPDLENPPLLVTPSQQAKFGDYQCNSAMGISQMLKTKEQKVNPREIAENITKHLPDNECIEKVEIAGPGFINVHLRKDFVSEQLTSLLVNGVQLPALGENKKVIVDFSSPNIAKEMHVGHLRSTIIGESISRLFEFAGYDVLRLNHVGDWGTQFGMLIAHLQDKFPDYLTVSPPIGDLQVFYKESKKRFDTEEEFKKRAYQCVVLLQGKNPDITKAWKLICDVSRQELNKIYDALDVSLIERGESFYQDRMNDIVKEFEDRGFVQVDDGRKIVFVPGCSIPLTIVKSDGGYTYDTSDLAAIKQRLFEEKADMIIYVVDNGQSVHFQTIFAAAQMIGWYDPKVTRVFHAGFGVVLGEDKKKFKTRSGETVRLMDLLGEGLKRSMDKLKEKERDKVLTAEELNAAQTSVAYGCIKYADLSHNRLNDYIFSFDKMLDDRGNTAAYLLYAFTRIRSIARLANIDEEMLQKAARETKILLDHEKEWKLGRCILRFPEILQKILDDLFLHTLCDYIYELATAFTEFYDSCYCVEKDRQTGKILKVNMWRMLLCEAVAAVMAKGFDILGIKPVQRM
B2: arginyl-tRNA synthetase (RARS) (enzyme, UniProt P54136 1-660)
chain: B1 chain

Amino acid sequences for entries named in this document (tags omitted).
UniProt Q15046: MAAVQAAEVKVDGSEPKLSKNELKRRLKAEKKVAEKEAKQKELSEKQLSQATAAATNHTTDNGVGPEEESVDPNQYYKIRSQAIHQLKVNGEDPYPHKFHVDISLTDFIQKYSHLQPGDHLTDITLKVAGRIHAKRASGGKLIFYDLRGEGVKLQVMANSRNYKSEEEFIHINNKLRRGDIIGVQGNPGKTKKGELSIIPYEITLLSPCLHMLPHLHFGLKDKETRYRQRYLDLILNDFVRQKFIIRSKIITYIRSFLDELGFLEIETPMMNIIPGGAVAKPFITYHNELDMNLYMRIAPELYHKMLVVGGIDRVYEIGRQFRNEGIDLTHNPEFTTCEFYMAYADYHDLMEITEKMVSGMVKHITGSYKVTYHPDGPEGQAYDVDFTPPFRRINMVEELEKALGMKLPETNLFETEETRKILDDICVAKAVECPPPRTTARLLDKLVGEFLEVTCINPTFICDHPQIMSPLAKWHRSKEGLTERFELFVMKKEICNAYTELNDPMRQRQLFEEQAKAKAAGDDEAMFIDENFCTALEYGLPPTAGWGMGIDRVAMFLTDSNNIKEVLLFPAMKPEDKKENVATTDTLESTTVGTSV

Experiments:
Experiment in all cases: co-IP; MARS-FLAG immuno-isolated from transfected HEK293 lysates (1% Triton-X100/25 mM HEPES, pH 7.9/10% glycerol, protease inhibitors) on anti-FLAG M2 affinity gel, 2 h at 4°C, washed with cold PBS, eluted with 0.5 mg/ml FLAG peptide; co-purified KARS and RARS detected by western blotting
I523T MARS-FLAG (human) = molecular target: T1, I523T MARS-FLAG (human) (UniProt P56192)
T1 sequence: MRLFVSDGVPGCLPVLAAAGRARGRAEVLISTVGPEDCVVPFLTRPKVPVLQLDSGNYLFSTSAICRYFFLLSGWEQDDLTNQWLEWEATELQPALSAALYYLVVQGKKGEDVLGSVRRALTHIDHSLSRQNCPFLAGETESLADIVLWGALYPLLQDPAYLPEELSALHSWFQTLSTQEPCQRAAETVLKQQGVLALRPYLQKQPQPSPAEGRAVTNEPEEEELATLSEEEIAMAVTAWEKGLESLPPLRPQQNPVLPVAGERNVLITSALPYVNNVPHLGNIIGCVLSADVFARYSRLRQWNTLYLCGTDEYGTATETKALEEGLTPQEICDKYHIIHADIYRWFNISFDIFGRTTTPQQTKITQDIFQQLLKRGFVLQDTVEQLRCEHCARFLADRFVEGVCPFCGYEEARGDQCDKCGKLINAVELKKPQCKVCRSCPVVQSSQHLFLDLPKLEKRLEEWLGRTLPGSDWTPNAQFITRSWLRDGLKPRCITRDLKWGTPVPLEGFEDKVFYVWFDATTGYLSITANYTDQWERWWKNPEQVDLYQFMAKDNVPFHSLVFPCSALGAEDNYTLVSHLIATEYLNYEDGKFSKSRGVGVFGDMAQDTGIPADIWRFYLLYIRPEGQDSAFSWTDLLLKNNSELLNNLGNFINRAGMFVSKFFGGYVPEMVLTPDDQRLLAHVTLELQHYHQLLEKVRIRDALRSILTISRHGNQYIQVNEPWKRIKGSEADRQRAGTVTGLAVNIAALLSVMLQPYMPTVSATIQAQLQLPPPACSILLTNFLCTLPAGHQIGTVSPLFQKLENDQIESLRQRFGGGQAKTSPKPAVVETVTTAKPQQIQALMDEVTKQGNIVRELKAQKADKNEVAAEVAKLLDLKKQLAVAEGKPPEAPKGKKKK

[1] = molecular target: T2, wild-type MARS-FLAG (human methionyl-tRNA synthetase with a C-terminal FLAG sequence) (human) (UniProt P56192)
T2 sequence: T1 sequence with T523I

F370L MARS-FLAG (human) = molecular target: T3, F370L MARS-FLAG (human) (UniProt P56192)
T3 sequence: T1 sequence with F370L, T523I

[2] = molecular target: T4, wild-type MARS-FLAG (human methionyl-tRNA synthetase with a C-terminal FLAG sequence) (human), P56192; conditions: remark: other sources report otherwise
T4 chain: T1 sequence with T523I

| Molecule | binding (I523T MARS-FLAG (human)) | binding [1] | binding (F370L MARS-FLAG (human)) | binding [2] |
| --- | --- | --- | --- | --- |
| lysyl-tRNA synthetase (KARS) (from UniProt Q15046 1-597) (enzyme) | binds | binds | binds |  |
| B1 |  |  |  | binds |
| B2 | binds |  | binds |  |

From publication PMC3852179
